Source: the supplement of paper PMC12823440, “Inhibitors supercharge kinase turnover through native proteolytic circuits” (Nature, 2025)
The list shows a part of the results. Hit calls seldom repeat between salt and free forms of one compound.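 In K562 cells expressing nanoluciferase-fused kinases, luminescence was recorded at 4 h intervals between 2 and 18 h, normalized as percent of control with DMSO at 100% and a positive control at 0%. A significant (2 sigma) signal drop marks a time point as decreased. The authors' rule for a hit is not shown and takes in more than the number of time points.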

Chains of the proteins cited; added tags and fusions are not shown.
UniProt P22607, whole entry, looked up: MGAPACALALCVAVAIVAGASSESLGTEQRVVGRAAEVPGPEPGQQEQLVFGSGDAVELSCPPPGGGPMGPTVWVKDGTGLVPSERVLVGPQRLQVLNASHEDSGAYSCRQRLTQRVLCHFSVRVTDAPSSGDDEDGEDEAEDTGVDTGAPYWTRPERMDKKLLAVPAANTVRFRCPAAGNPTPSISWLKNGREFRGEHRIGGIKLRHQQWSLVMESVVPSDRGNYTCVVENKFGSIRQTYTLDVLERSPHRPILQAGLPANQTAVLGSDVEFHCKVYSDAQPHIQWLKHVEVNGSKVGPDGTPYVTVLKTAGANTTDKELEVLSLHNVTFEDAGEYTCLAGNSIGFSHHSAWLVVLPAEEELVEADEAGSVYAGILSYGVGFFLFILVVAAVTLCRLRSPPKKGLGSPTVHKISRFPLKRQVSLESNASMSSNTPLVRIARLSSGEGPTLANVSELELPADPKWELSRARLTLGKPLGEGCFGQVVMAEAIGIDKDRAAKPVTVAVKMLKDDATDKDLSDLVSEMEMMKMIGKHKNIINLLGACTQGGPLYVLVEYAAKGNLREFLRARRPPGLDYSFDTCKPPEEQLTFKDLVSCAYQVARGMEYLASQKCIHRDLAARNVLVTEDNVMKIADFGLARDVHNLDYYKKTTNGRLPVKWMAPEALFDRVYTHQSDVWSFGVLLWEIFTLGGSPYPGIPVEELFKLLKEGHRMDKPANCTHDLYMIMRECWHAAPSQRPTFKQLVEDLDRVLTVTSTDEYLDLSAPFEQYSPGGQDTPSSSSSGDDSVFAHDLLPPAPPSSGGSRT

Molecular target: FGFR3 (UniProt P22607)
Test: kinase-Nluc reporter destabilization hit call (1 = scored as downregulated) (binary); higher = compound decreases kinase abundance
Details: K562; 2-18 h

kinase-Nluc reporter destabilization hit call, inactive:
CC(C)Cn1ncc2cc(Oc3ccc(F)cc3F)c(C(=O)NCCN(C)C)cc21 [p38α inhibitor 1] (10 µM) 0, CNc1cc2c(Nc3cccc(Br)c3)ncnc2cn1 (10 µM) 0, CN1C(=O)[C@@H](NC(=O)c2cc(Cc3ccccc3)on2)COc2ccccc21 (10 µM) 0, CC(C1CC1)n1cnc2c(NCc3cccc(C(F)(F)F)c3)nc(NCCN(C)C)nc21 (centres undefined) (10 µM) 0, Cc1n[nH]c2ncc(C(=O)N3CCC[C@H]3c3ccc(Cl)cc3)cc12 (10 µM) 0, COc1ccc(Br)c(C=O)c1O [6-Bromo-2-hydroxy-3-methoxybenzaldehyde] (10 µM) 0, Oc1ccc(-c2cnc3ccc(NCc4ccco4)nn23)cc1 [IRAK inhibitor 2] (2.5 µM) 0, C[C@H](Nc1cc2c(-c3ccc4c(c3)OCO4)noc2cn1)c1ccccc1 (10 µM) 0, Nc1ccc(C(=O)Nc2cccc(-c3nc(N4CCOCC4)c4oc5ncccc5c4n3)c2)cn1 (10 µM) 0, CCOC(=O)c1c(N2CCc3ccc(OC)cc3C2)oc(C=C2C=Nc3ncccc32)c1O (10 µM) 0, Cc1ncc(-c2cc(F)c(O)c(F)c2)cc1-c1cc(F)c(O)c(F)c1 (10 µM) 0, N=C(NC(=N)N1CCCC1)Nc1ccc(OC(F)(F)F)cc1 (10 µM) 0, CC1(C)CN(C(=O)c2ccc(-c3cccc4nc(NC(=O)C5CC5)nn34)cc2)C1 [Solcitinib] (10 µM) 0, COc1c(O)cc(O)c2c(=O)cc(-c3ccccc3)oc12 [Wogonin] (10 µM) 0, O=C(NC[C@H](O)CO)c1ccncc1Nc1ccc(I)cc1F [Pimasertib] (10 µM) 0, N#Cc1cnc(Nc2cc(NC[C@H]3CNCCO3)c(C(F)(F)F)cn2)cn1 (10 µM) 0, CCNC(=O)Nc1ccc(-c2nc3c(c(N4CCOC[C@@H]4C)n2)CCN(C2COC2)C3)cc1 (2.5 µM) 0, COc1cc2ncnc(Nc3cc(Br)c(O)c(Br)c3)c2cc1OC (2.5 µM) 0, Nc1ccc(-c2nc3ccc(-c4nc5ccc(N)cc5[nH]4)cc3[nH]2)cc1 (10 µM) 0, CCCCC(=O)OCC(=O)[C@]1(O)Cc2c(O)c3c(c(O)c2[C@@H](O[C@H]2C[C@H](NC(=O)C(F)(F)F)[C@H](O)[C@H](C)O2)C1)C(=O)c1c(OC)cccc1C3=O [Valrubicin] (10 µM) 0, CCOC(=O)c1c(Nc2ccccc2Cl)oc(/C=C2\C=Nc3ncccc32)c1O (10 µM) 0, Nc1[nH]nc2nnc(-c3c(-c4ccccc4)nn4ccccc34)cc12 (10 µM) 0, COc1cc2nc(NC3CC3)nc(NC3CCN(C(C)C)CC3)c2cc1OC (10 µM) 0, S=C(NCc1ccc2c(c1)OCO2)N1CCN(c2ncnc3c2oc2ccccc23)CC1 [Amuvatinib] (2.5 µM) 0, CC(=O)O[C@@H]1[C@@H](OC(C)=O)[C@@H](O)[C@H](Oc2c(-c3ccc(O)cc3)oc3cc(O)cc(O)c3c2=O)O[C@H]1C (10 µM) 0, CC1=CC(=O)C(C(C)C)=C/C1=N/OC(=O)c1ccccc1C [Poloxin] (2.5 µM) 0, CO[C@@H]1[C@H](N(C)C(=O)c2ccccc2)C[C@H]2O[C@]1(C)n1c3ccccc3c3c4c(c5c6ccccc6n2c5c31)C(=O)NC4 [Midostaurin] (2.5 µM) 0, Fc1ccc(Cl)cc1-c1nc(Nc2ccncc2)c2nccnc2n1 (10 µM) 0, CN1CCC(Nc2ccc(C(=O)Nc3cc(-c4ccc5c(c4)OCO5)[nH]n3)cc2)CC1 (10 µM) 0, CN1CCC(Nc2nc(Nc3ccc(Oc4ccccc4)cc3)c3c(=O)[nH]cc(Br)c3n2)CC1 (2.5 µM) 0, O=C(COc1ccc(Cl)cc1)NC1CCC(NC(=O)COc2ccc(Cl)cc2)CC1 (stereo not drawn) [ISRIB (trans-isomer)] (10 µM) 0, Cc1ccc(C2CC(=O)NC(SCC(=O)Nc3nccs3)=C2C#N)cc1 (centres undefined) [Necrostatin-34] (10 µM) 0, CCCCNc1ncc(C(=O)NCc2ccc(-n3ccnc3)cc2)c(NC2CCC(O)CC2)n1 (centres undefined) (10 µM) 0, O=C1NC(=O)C(Cc2c[nH]c3c(Cl)cccc23)N1 (centres undefined) [Necroptosis-IN-1] (10 µM) 0, O=C1C=CC2=C3c4cc(O)c(O)cc4CC3(O)COC2=C1O (centres undefined) [Hematein] (10 µM) 0, NC(=O)c1cnc(N[C@@H]2CCCC[C@@H]2N)nc1Nc1cccc(-n2nccn2)c1 (2.5 µM) 0, COc1cc2nc(-c3cc(F)ccc3O)nc(N[C@@H]3CNC[C@H]3C(C)(C)O)c2cc1OC (2.5 µM) 0, CN1CCN(Cc2ccc(-c3cn(C4CCC(O)CC4)c4nc(NCCC5CC5)ncc34)cc2)CC1 (centres undefined) (2.5 µM) 0, O=S(=O)(c1ccc(O)cc1O)N1Cc2cc(O)cc(O)c2C1 (10 µM) 0
